In publication doi:10.1101/2020.06.25.171694:
No constants are given. Whether binding was seen depends on the method and setting. In cells and extracts the contact can be indirect. Some entries that bind do so weakly or less than the wild type. Tags and fused reporters may be left off the sequences shown.

T1: Heh1-S^GFP 1-638aa (S. cerevisiae) (UniProt Q03707)
T1 sequence: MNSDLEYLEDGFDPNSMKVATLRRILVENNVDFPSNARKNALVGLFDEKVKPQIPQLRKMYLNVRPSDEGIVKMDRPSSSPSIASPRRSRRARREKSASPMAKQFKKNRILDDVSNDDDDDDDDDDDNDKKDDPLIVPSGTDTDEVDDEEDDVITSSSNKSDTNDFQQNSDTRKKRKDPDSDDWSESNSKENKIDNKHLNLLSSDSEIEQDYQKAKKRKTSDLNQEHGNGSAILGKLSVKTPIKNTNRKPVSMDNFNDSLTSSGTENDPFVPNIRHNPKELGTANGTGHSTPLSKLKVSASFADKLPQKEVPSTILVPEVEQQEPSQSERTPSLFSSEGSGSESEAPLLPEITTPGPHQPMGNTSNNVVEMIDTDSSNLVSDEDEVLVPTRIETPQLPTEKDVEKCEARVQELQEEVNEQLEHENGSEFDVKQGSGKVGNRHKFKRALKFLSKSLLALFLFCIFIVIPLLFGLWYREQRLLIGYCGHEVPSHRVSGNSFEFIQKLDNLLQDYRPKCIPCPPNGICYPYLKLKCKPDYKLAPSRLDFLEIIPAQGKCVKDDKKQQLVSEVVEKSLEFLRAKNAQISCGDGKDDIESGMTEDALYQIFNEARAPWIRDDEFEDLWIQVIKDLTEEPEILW

T2: Heh1-L^GFP (S. cerevisiae), Q03707
T2 chain: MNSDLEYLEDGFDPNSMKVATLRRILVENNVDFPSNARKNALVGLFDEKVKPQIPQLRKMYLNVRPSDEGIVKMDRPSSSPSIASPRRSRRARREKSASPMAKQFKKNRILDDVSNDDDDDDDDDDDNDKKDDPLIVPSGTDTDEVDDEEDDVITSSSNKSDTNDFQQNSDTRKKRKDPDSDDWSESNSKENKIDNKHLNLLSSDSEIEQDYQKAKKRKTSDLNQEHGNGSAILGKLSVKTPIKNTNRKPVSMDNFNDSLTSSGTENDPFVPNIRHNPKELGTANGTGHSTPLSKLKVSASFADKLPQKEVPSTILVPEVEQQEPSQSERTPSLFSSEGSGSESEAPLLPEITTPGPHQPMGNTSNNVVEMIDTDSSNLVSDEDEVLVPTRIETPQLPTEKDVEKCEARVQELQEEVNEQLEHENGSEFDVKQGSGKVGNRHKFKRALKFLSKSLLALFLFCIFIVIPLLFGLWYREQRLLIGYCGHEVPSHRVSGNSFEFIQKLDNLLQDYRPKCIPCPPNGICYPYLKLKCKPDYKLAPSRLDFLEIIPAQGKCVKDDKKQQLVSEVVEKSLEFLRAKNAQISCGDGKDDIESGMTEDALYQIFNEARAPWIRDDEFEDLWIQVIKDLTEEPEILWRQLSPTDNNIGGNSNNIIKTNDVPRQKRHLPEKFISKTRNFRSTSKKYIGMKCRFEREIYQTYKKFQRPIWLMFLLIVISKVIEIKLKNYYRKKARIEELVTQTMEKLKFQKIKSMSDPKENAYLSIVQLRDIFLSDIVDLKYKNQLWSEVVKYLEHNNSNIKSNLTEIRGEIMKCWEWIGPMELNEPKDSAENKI


Tests used:
[1] = molecular target: T1, Heh1-S^GFP 1-638aa (S. cerevisiae); experiment: co-IP
[2] = molecular target: T2, Heh1-L^GFP (S. cerevisiae), Q03707; experiment: co-IP; settings: remark: other sources report otherwise

| binding [1] | binding [2] | Binder |
| --- | --- | --- |
| binds |  | Heh1-L^6HA (protein, UniProt Q03707 1-834) MNSDLEYLEDGFDPNSMKVATLRRILVENNVDFPSNARKNALVGLFDEKVKPQIPQLRKMYLNVRPSDEGIVKMDRPSSSPSIASPRRSRRARREKSASPMAKQFKKNRILDDVSNDDDDDDDDDDDNDKKDDPLIVPSGTDTDEVDDEEDDVITSSSNKSDTNDFQQNSDTRKKRKDPDSDDWSESNSKENKIDNKHLNLLSSDSEIEQDYQKAKKRKTSDLNQEHGNGSAILGKLSVKTPIKNTNRKPVSMDNFNDSLTSSGTENDPFVPNIRHNPKELGTANGTGHSTPLSKLKVSASFADKLPQKEVPSTILVPEVEQQEPSQSERTPSLFSSEGSGSESEAPLLPEITTPGPHQPMGNTSNNVVEMIDTDSSNLVSDEDEVLVPTRIETPQLPTEKDVEKCEARVQELQEEVNEQLEHENGSEFDVKQGSGKVGNRHKFKRALKFLSKSLLALFLFCIFIVIPLLFGLWYREQRLLIGYCGHEVPSHRVSGNSFEFIQKLDNLLQDYRPKCIPCPPNGICYPYLKLKCKPDYKLAPSRLDFLEIIPAQGKCVKDDKKQQLVSEVVEKSLEFLRAKNAQISCGDGKDDIESGMTEDALYQIFNEARAPWIRDDEFEDLWIQVIKDLTEEPEILWRQLSPTDNNIGGNSNNIIKTNDVPRQKRHLPEKFISKTRNFRSTSKKYIGMKCRFEREIYQTYKKFQRPIWLMFLLIVISKVIEIKLKNYYRKKARIEELVTQTMEKLKFQKIKSMSDPKENAYLSIVQLRDIFLSDIVDLKYKNQLWSEVVKYLEHNNSNIKSNLTEIRGEIMKCWEWIGPMELNEPKDSAENKI |
|  | binds | Heh1-L^6HA, Q03707 1-834 (protein) MNSDLEYLEDGFDPNSMKVATLRRILVENNVDFPSNARKNALVGLFDEKVKPQIPQLRKMYLNVRPSDEGIVKMDRPSSSPSIASPRRSRRARREKSASPMAKQFKKNRILDDVSNDDDDDDDDDDDNDKKDDPLIVPSGTDTDEVDDEEDDVITSSSNKSDTNDFQQNSDTRKKRKDPDSDDWSESNSKENKIDNKHLNLLSSDSEIEQDYQKAKKRKTSDLNQEHGNGSAILGKLSVKTPIKNTNRKPVSMDNFNDSLTSSGTENDPFVPNIRHNPKELGTANGTGHSTPLSKLKVSASFADKLPQKEVPSTILVPEVEQQEPSQSERTPSLFSSEGSGSESEAPLLPEITTPGPHQPMGNTSNNVVEMIDTDSSNLVSDEDEVLVPTRIETPQLPTEKDVEKCEARVQELQEEVNEQLEHENGSEFDVKQGSGKVGNRHKFKRALKFLSKSLLALFLFCIFIVIPLLFGLWYREQRLLIGYCGHEVPSHRVSGNSFEFIQKLDNLLQDYRPKCIPCPPNGICYPYLKLKCKPDYKLAPSRLDFLEIIPAQGKCVKDDKKQQLVSEVVEKSLEFLRAKNAQISCGDGKDDIESGMTEDALYQIFNEARAPWIRDDEFEDLWIQVIKDLTEEPEILWRQLSPTDNNIGGNSNNIIKTNDVPRQKRHLPEKFISKTRNFRSTSKKYIGMKCRFEREIYQTYKKFQRPIWLMFLLIVISKVIEIKLKNYYRKKARIEELVTQTMEKLKFQKIKSMSDPKENAYLSIVQLRDIFLSDIVDLKYKNQLWSEVVKYLEHNNSNIKSNLTEIRGEIMKCWEWIGPMELNEPKDSAENKI |
